Measured values from patent US20240398899A1 (priority 2021, published 2024).
Structures can show the parent of a compound that is named as a salt.

Key:
Type in all cases: in vivo, Mus musculus (Swiss Albino)
[1] = tested on: Swiss albino mice; experiment: Passive avoidance test, scopolamine induced dementia; settings: for Mean Transfer Latency Time: G3: 2.5 mg/kg p.o. qdx14, scopolamine 2.5 mg/kg i.p., hydrochloride
Experimental: Required amount of recombinant lectin protein having SEQ ID NO: 1 was diluted in sterile Tris Buffered Saline (TBS) to achieve desired final concentration, i.e 0.1 mg/mL, 0.05 mg/mL, 0.025 mg/mL, at the doses of 0.5 mg/kg, 0.25 mg/kg and 0.125 mg/kg respectively. Formulation was prepared fresh daily.
TBS buffer and 0.5% CMC were used as a vehicle for preparation of test item, recombinant Lectin having SEQ ID NO: 1 and reference item formulation, respectively Male Mus musculus (Swiss Albino) aged between 8-10 weeks procured from GENTOX Bio services Pvt Ltd, Hyderabad. Animals were classified into 6 groups and acclimatized for two weeks. Animals were identified by cage labelling and tail marking and were randomized on the basis of their body weight.
Healthy male Swiss albino mice (n=48) were selected and randomized based on body weight (n=8 per Group) into 6 groups as mentioned in table no-1. The control group G1 was treated intravenously with vehicle daily till the experiment completion. Group G2 was considered as negative control and treated with vehicle. […] Group G4, G5 &G6 animals were treated with the test item recombinant lectin protein having SEQ ID NO: 1 at the dose of 0.5 mg/kg, 0.25 mg/kg and 0.125 mg/kg, respectively. All the test items were given intravenously (i.v) daily at the dose volume of 5 ml/kg for 14 Days. The body weight was recorded daily throughout the experimental period. […] One hour after the last dose of test items (on Day 14) all the animals were injected with scopolamine hydrobromide at the dose of 2.5 mg/kg, i.p., except the normal control group G1. Passive avoidance test was conducted 30 min after scopolamine injection. […]
For the training trial, the mice were initially placed in the illuminated chamber. […] The latency times once the mice entered from light compartment to the dark compartment was recorded using in-build timer. A test trial was performed 24 h following the training trial, and latency times to re-enter the dark chamber was measured up to 5 min

[2] = tested on: Brain NGF (Nerve Growth Factor); experiment: Brain biomarker ELISA, scopolamine induced dementia
From the text: (§1) Brain was dissected into two portions

[3] = tested on: TNF alpha; experiment: as above; settings: mice
From the text: as §1

[4] = tested on: Cerebral Cortex and Hippocampus; experiment: Brain histopathology (H&E), scopolamine induced dementia; settings: G3: 2.5 mg/kg p.o. qdx14, score 0 normal to 4 diffused neuronal injury
Experimental: Mouse brains were collected after humane sacrifice and fixed in 10% neutral buffered formalin. Then, the brain tissue was trimmed, processed and embedded in paraffin. 5 Micron sections were prepared in slide as a specimen for hematoxylin-eosin (H&E) staining. The hippocampal lesions were assessed microscopically at 100× magnification.
Detailed histological investigation was performed H&E stained brain tissues. Scoring was given according to the neuronal damage. […] The grading criteria for Histopathology score was: Normal or no injury—0; Rare neuronal injury (<5 clusters)—1; Occasional neuronal injury (5-15 clusters)—2; Frequent neuronal injury (>15 clusters)—3; Diffused neuronal injury-4.

Compound: COc1cc2c(cc1OC)C(=O)C(CC1CCN(Cc3ccccc3)CC1)C2 (stereo not drawn) [Donepezil hydrochloride, reference compound]
- % increase in Transfer Latency Time ([1]; G3: 2.5 mg/kg p.o. qdx14, compared with G2 (scopolamine)): 48.5%
- Mean Transfer Latency Time [1]: 110.61 s
- Mean Transfer Latency Time ([1]; listed as Donepezil): 110.61 ± 7.02 s
- brain nerve growth factor (NGF) Mean ([2]; G3: 2.5 mg/kg p.o. qdx14, scopolamine 2.5 mg/kg i.p., mice): 57 pg/mL
- level of NGF (brain) ([2]; Positive control group, scopolamine treated mice): 57 µg/mL
- brain TNF-alpha Mean ([3]; G3: 2.5 mg/kg p.o. qdx14, scopolamine 2.5 mg/kg i.p.): 155.81 pg/mL
- level of TNF-α (brain) ([3]; positive control group, donepezil and scopolamine): 156 µg/mL
- Histopathology (Mean score) Cerebral Cortex Cortex [4]: 0
- Histopathology (Mean score) Cerebral Cortex Meninges [4]: 0
- Histopathology (Mean score) Hippocampus CA1 [4]: 0
- Histopathology (Mean score) Hippocampus CA3 [4]: 1.33
- Histopathology (Mean score) Hippocampus DG [4]: 0
